Results are given in words; binding and its absence hold for the method and conditions named. Some binding calls cover weakened binding; strength is not graded here.

The chains behind the UniProt entries cited, without tags or fusion partners. Where a name states a change or a piece, a line headed by the entry shows the natural chain unless it says otherwise. A line that says so, or that is headed by a name, gives the form on record, which may keep a tag or linker. Residues count along the entry.
UniProt Q02763: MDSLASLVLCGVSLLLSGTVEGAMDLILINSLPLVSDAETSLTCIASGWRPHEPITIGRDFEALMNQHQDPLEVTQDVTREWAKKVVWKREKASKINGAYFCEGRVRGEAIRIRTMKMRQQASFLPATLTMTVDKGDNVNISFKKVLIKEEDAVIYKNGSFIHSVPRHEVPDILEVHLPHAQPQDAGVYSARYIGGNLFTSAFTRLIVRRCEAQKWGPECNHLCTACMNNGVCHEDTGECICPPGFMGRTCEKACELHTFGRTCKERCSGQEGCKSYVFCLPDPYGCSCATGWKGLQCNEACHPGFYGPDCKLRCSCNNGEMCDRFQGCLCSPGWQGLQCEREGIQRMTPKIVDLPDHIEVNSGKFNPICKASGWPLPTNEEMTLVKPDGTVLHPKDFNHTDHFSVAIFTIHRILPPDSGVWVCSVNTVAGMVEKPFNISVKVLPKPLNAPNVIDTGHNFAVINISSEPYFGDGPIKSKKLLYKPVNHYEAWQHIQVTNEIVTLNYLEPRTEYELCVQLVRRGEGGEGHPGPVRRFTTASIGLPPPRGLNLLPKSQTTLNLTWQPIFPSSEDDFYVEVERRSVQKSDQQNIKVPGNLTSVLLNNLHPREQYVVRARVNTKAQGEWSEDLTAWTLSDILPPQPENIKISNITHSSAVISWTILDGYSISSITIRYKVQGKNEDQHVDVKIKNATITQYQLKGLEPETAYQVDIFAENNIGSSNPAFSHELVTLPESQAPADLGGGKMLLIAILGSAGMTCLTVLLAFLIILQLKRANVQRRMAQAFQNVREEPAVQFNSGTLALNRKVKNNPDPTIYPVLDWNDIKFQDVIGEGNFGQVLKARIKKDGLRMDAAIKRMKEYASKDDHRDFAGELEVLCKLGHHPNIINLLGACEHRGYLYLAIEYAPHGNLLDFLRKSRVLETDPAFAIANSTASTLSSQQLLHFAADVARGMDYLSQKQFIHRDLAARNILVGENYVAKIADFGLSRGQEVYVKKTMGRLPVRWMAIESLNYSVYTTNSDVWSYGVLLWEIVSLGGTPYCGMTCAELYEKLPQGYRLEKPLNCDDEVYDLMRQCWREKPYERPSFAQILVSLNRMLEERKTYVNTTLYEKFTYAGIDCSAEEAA
UniProt O08538, residues 20-498: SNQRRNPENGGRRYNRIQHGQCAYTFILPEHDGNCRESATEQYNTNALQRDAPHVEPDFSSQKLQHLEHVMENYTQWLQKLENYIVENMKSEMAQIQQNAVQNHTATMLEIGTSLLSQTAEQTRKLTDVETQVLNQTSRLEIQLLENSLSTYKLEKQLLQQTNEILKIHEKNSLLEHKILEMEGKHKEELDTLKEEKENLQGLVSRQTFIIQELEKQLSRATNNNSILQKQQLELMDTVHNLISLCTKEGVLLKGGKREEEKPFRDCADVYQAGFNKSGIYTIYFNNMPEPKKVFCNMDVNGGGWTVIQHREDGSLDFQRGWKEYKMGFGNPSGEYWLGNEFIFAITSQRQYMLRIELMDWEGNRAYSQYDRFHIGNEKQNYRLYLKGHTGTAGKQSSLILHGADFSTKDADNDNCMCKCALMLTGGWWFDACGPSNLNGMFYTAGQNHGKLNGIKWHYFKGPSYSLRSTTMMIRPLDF
UniProt O15123: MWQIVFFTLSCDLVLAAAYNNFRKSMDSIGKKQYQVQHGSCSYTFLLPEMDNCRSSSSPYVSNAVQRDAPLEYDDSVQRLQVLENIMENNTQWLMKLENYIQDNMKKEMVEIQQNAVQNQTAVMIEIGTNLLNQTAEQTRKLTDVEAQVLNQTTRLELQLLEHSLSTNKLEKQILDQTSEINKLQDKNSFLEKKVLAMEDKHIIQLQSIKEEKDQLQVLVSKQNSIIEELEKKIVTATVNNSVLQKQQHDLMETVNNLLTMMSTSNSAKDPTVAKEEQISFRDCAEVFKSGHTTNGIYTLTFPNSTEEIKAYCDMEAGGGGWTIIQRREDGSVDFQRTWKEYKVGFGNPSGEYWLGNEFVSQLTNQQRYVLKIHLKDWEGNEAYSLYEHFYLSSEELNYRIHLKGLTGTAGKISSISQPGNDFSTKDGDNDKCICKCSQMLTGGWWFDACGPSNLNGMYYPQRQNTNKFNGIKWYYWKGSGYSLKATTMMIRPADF
rat TIE-2 receptorbody (entire extracellular portion of the rat TIE-2 receptor fused to human IgG1 Fc) (A0ABK0L6J5, form named): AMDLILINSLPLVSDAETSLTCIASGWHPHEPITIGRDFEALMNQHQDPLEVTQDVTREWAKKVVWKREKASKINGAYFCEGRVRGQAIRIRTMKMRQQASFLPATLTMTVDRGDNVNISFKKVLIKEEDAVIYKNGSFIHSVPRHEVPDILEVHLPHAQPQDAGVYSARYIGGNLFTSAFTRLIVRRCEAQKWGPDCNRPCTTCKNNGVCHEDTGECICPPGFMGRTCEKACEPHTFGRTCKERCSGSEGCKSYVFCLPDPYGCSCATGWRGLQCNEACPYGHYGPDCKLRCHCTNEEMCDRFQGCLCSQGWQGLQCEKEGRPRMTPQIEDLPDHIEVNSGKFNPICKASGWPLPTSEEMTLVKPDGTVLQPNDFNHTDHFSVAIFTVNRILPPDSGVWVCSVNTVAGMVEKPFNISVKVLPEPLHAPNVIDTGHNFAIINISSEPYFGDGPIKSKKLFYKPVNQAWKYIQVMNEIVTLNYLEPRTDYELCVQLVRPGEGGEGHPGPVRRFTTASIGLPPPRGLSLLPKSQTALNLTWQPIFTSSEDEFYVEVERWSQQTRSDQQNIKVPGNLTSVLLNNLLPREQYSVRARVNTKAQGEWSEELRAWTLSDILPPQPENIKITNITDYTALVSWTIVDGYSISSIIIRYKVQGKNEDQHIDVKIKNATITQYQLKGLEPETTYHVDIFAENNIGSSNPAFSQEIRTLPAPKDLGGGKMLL

We go through three substances from patent publication US7063965.

For test [1], the target named is rat TIE-2 receptorbody (entire extracellular portion of the rat TIE-2 receptor fused to human IgG1 Fc) (rat; human). In words: SPR (BIAcore), 10x conditioned medium, TIE-2-specific binding activity. (In general: SPR reads the build-up and loss of mass on a sensor chip optically.)
For test [2] the target is unchanged. In words: SPR (BIAcore), conditioned medium over immobilised rat TIE-2 RB, preincubation with 25 µg/ml soluble rat TIE-2 RB.
Test [3] shares this target. Put plainly: SPR (BIAcore), 10x conditioned medium over immobilised rat TIE-2 IgG, with or without soluble receptorbody.
The target is the same in test [4]. Put plainly: SPR (BIAcore), medium preincubated with excess soluble TIE-2 RB.
The target in test [5] is T1, human TIE-2 receptorbody (human) (UniProt Q02763+P01857). Put plainly: SPR (BIAcore), COS supernatant over immobilised human TIE-2 RB, preincubation with 25 µg/ml soluble human TIE-2 RB.
Test [6] deals with T1, human TIE-2 receptorbody (human). Put plainly: SPR (BIAcore), COS supernatant over immobilised human TIE-2 RB, with or without soluble receptorbody.
Test [7] deals with mouse TIE-2 ligand (clone pJFE14 encoding TIE-2 ligand, ATCC 75910) expressed in COS-7 cells (mouse) (UniProt O08538). Put plainly: staining of fixed, permeabilised transfected COS-7 cells with TIE-2 RB, anti-human IgG-alkaline phosphatase.
The target in test [8] is human TIE-2 ligand 2 (human) (UniProt O15123). The description is as above.

Take “TIE-2 ligand in C2C12-ras conditioned medium (from UniProt O08538 20-498)”: the binding entry in test [1], in test [2], in test [3] and in test [4] was “binds” each time.
As to “human TIE-2 ligand 2 (from UniProt O15123 19-496)”, the binding entry in test [5] and in test [6] was “binds” throughout.
Consider “rat TIE-2 receptorbody (entire extracellular portion of the rat TIE-2 receptor fused to human IgG1 Fc) (from UniProt A0ABK0L6J5 19-740) (Fc fusion)”, for which the binding entry in test [7] and in test [8] was “binds” each time.
